Data reported in patent US20240016781A1, “TREATMENT OF KRAS MUTANT CANCERS” (MEI Pharma, Inc., priority 2020, published 2024).

Tests used:
Assay in all cases: 72-hour CellTiter-Glo 2.0 growth inhibition screen (single agent, 9x9 combination dose matrix)
Assay type in all cases: cell-based
AsPC-1 = AsPC-1 (KRAS G12D), enhancer + MEI-522 (Voruciclib)
Description: (§1) Growth inhibition was determined using a 72-hour CellTiter-Glo®2.0 proliferation assay. Combination format was a 9×9 dose matrix. Six of the 20 cell lines received the original two combinations whilst the remaining 14 cell lines received two additional combinations resulting in four combinations in total. Results have been supplied as both Chalice Analyzer files (.mcc) and raw luminescence data.
(§2) Cell lines that have been preserved in liquid nitrogen are thawed and expanded in growth media (see Appendix I). Once cells have reached expected doubling times, screening begins. Cells are seeded in 25 μl of growth media in black 384-well tissue culture treated plates at 500 cells per well (as noted in Analyzer). Cells are equilibrated in assay plates via centrifugation and placed at 37° C. 5% CO2 for twenty-four hours before treatment. […] Compounds are transferred to assay plates using and Echo acoustic liquid handling system. […] of each compound was added at the appropriate concentration for all combination dose points. Therefore, final assay volume would be 25.05 μl. Assay plates are incubated with compound for 3 days and are then analyzed using CellTiter-Glo 2.0. All data points are collected via automated processes and are subject to quality control and analyzed.
(§3) If T≥V_0:100*(1−(T−V_0)/(V−V_0)) • where T is the signal measure for a test article, V is the untreated/vehicle-treated control measure, and Vo is the untreated/vehicle control measure at time zero (also colloquially referred as TO plates). This formula is derived from the Growth Inhibition calculation used in the National Cancer Institute's NCI-60 high throughput screen. For the purposes of this disclosure, all data analysis was performed in Growth Inhibition (except where noted).
(§4) Inhibition is also provided as a measure of cell viability. […] Inhibition of 100% represents no doubling of cell numbers during the treatment window. Both cytostatic and cytotoxic treatments can yield an Inhibition percentage of 100%. Inhibition percentage is calculated as the following: […]
(§5) The fractional inhibition for each component agent and combination point in the matrix is calculated relative to the median of all untreated/vehicle-treated control wells. The Synergy Score equation integrates the experimentally-observed activity volume at each point in the matrix in excess of a model surface numerically derived from the activity of the component agents using the Loewe model for additivity. Additional terms in the Synergy Score equation (above) are used to normalize for various dilution factors used for individual agents and to allow for comparison of synergy scores across an entire experiment. The inclusion of positive inhibition gating or an Idata multiplier removes noise near the zero-effect level, and biases results for synergistic interactions at that occur at high activity levels. Combinations with higher maximum Growth Inhibition (GI) effects or those which are synergistic at low concentrations will have higher Synergy Scores.
(§6) The CI is a rough estimate of how much drug was needed in combination relative to the single agent doses required to achieve the chosen effect level. CI values in the range of 0.5-0.7 are typical for in vitro measurements of current clinical combinations. The CI error (σCI) is calculated using standard error propagation through the CI calculation based on the isobologram errors. In the Chalice Analyzer, the Best CI is reported from the many CI values calculated for each Icut crossing combination. Among all the measured CI values, the one with the largest single-to-noise level (1−CI)/σCI is reported as the Best CI. Best CI Level is the effect level from which the CI is calculated.

Gp2D = Gp2D (KRAS G12D), enhancer + MEI-522 (Voruciclib)
Description: as §1, §2, §3, §4, §5, §6

LS-513 = LS-513 (KRAS G12D), enhancer + MEI-522 (Voruciclib)
Description: as §1, §2, §3, §4, §5, §6

NCI-H358 = settings: NCl-H358 (KRAS G12C), enhancer + MEI-522 (Voruciclib)
Description: as §1, §2, §3, §4, §5, §6

Panc 04.03 = Panc 04.03 (KRAS G12D), enhancer + MEI-522 (Voruciclib)
Description: as §1, §2, §3, §4, §5, §6

SW48 KRAS (G12C/+) = settings: enhancer + MEI-522 (Voruciclib)
Description: as §1, §2, §3, §4, §5, §6

SW837 = SW837 (KRAS G12C), enhancer + MEI-522 (Voruciclib)
Description: as §1, §2, §3, §4, §5, §6

TOV-21G = TOV-21G (KRAS G13C), enhancer + MEI-522 (Voruciclib)
Description: as §1, §2, §3, §4, §5, §6

Row | SMILES | Best CI Level (AsPC-1) | Best CI Level (Gp2D) | Best CI Level (LS-513) | Best CI Level (NCI-H358) | Best CI Level (Panc 04.03) | Best CI Level (SW48 KRAS (G12C/+)) | Best CI Level (SW837) | Best CI Level (TOV-21G)
1 | C=CC(=O)N1CCN(c2nc(=O)n(-c3c(C)ccnc3C(C)C)c3nc(-c4c(O)cccc4F)c(F)cc23)[C@@H](C)C1 [AMG510] | 20 | 175 | 20 | 25 | 45 | 130 | 95 | 25
2 | CN1CCN(c2ccc(OC(F)(F)F)c(Nc3ncc4c(n3)-c3c(c(C(N)=O)nn3CCO)CC4)c2)CC1 [Onvansertib] | 20 | 175 | 150 | 110 | 20 | 120 | 30 | 40
3 | CC[C@@H]1C(=O)N(C)c2cnc(Nc3ccc(C(=O)N[C@H]4CC[C@H](N5CCN(CC6CC6)CC5)CC4)cc3OC)nc2N1C(C)C [Volasertib] | 95 | 175 | 145 | 110 | 170 | 125 | 160 | 20
